Results: US20240208972A1, “LRRK2 INHIBITORS AND USES THEREOF” (NEURON23, INC., priority 2022, published 2024)

Sequences of proteins named here, by UniProt entry; tags and fusion partners are left off. Residues count along the entry.
UniProt Q5S007, 1879-2138 limits assumed: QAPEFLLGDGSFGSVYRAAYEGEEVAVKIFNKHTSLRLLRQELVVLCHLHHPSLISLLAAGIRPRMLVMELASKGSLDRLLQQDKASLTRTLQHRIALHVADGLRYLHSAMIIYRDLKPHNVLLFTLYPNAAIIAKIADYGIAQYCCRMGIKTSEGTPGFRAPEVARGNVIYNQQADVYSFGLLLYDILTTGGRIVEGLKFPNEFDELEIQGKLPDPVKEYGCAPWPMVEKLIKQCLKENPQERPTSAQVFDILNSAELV

What was measured:
human hepatocyte = assay: Human hepatocyte stability, in vitro h-Hept CLpredict; conditions: human hepatocytes, predicted hepatic clearance; cells without asterisk
Method: The compounds disclosed herein were tested in vitro on human hepatocyte for in vitro h-Hept CLpredict according to the following procedures. • 1. Compound sock solutions were prepared by dissolving test compound and positive control in dimethyl sulfoxide (DMSO) at a concentration of 10 mM. Stock solutions were then diluted to 100 μM solutions by combining 198 μL of 50% acetonitrile/50% water with 2 μL of the 10 mM stock stock in separate conical tubes. • 2. Cryopreserved hepatocytes were prepared as follows: Incubation medium (William's E Medium supplemented with GlutaMAX) and hepatocyte thawing medium were placed in a 37° C. water bath and allowed to warm for at least 15 minutes prior to use. […] Cells were counted using acridine orange and propidium iodide (AO/PI) staining, and the viable cell density was determined. […]
All calculations were carried out using Microsoft Excel. Peak area ratios (PAR) were determined from extracted ion chromatograms. The in vitro half-life (t1/2) of parent compound was determined by regression analysis of the percent parent disappearance vs. time curve as follows:
The in vitro half-life (in vitro t1/2) was determined from the slope value: […]
The scaled-up intrinsic clearance (CLint, mL/min/kg), predicted hepatic clearance (CLH, mL/min/kg) and hepatic extraction ratio (ER) were calculated using the following equations: […]

Caco-2 cells = assay: Caco-2 bidirectional permeability
Method: The compounds disclosed herein were tested in vitro on CaCo2 cell penetration according to the following procedures.
Test compounds were prepared in dimethyl sulfoxide (DMSO).
Caco-2 cells purchased from ATCC were seeded onto […] (PET) in 96-well Corning Insert plates at 1×10^5 cells/cm^2. The media were refreshed every 4 to 5 days until the 21st to 28th day for confluent cell monolayer formation.
Experiments were run in duplicate using a HBSS transport buffer containing 10 mM HEPES at pH 7.4. The test article TEST COMPOUND was tested bi-directionally at […] concentrations, the control compound digoxin was tested bi-directionally at 10 μM, and nadolol and metoprolol were tested at 2.0 μM in the A to B direction. Final DMSO concentrations were adjusted to less than 1%. The plates were incubated for 2 hours in a CO2 incubator at 37±1° C. with 5% CO2 at saturated humidity without shaking. Following incubation, samples were mixed with acetonitrile containing internal standard and centrifuged at 3200×g for 10 minutes. Then 200 μL of supernatant was taken from all samples. […] All samples were analyzed by LC-MS/MS. Concentrations of TEST COMPOUND and control compounds were determined in starting solutions, donor well solutions, and receiver well solutions using peak area ratios (PAR) of analyte to internal standard. […]
The apparent permeability (Papp), the % recovery and the efflux ratio were calculated as follows: • 1. […] Efflux Ratio=Papp (BA)/Papp (AB) • Where: • dCr/dt is the slope of the cumulative concentration in the receiver compartment versus time (mM/s). • Vr and Vd is the volume in the receiver and donor compartments (0.075 mL on the apical side, 0.25 mL on the basolateral side), respectively. • A is the surface area of the cell monolayer (0.0804 cm^2). • C0 is the measured donor concentrations (μM) at the beginning of the experiment. • Cd and Cr are the final measured concentrations in the donor and receiver compartments, respectively. […]

[1] = molecular target: wt human LRRK2, catalytic site (Homo sapiens, UniProt Q5S007); assay: TR-FRET LanthaScreen Tb Kinase Activity Assay, LRRK2 kinase inhibition; conditions: read-out: LRRK2 IC50; 2 nM wt human LRRK2, 400 nM peptide, 38 μM ATP
Method: The compounds disclosed herein were tested for their inhibitory effect on LRRK2 kinase according to the following procedures.
The protocol for basic TR-FRET LanthaScreen Tb Kinase Activity Assay inhibitor studies is as follows. LanthaScreen Kinase Activity Assays (ThermoFisher/USA) to evaluate inhibitors were performed by addition of 100 nL of test compound in the corresponding DMSO dilutions/5 L of kinase/fluorescein-ERM(LRRKtide) peptide mixture, Compound & kinase were pre-incubated for 15 minutes, then 5 μl of ATP into 384 well small volume plates. After incubation for 120 minutes at room temperature, the detection reagents containing Tb-anti-pLRRKtide antibody were added to monitor the phosphrylation level of peptide. Then, after 60 min minutes incubation at room temperature plates were read in Envision. Data analysis of emission ratios was according to the LanthaScreen Tb Kinase Activity Assay protocol.
Kinase and assay components were adjusted to final concentrations according to the kit protocol. For LRRK2: 2 nM wt human LRRK2, catalytic site, catalytic site (ThermoFisher/USA), 400 nM peptide, 38 μM ATP in 1× Kinase Buffer A. […]
Detection step: Addition of 10 μl EDTA & antibody, read plate after 60 minutes. […]

Fc1cc(N2CCOCC2)cc2c1NC(c1c(F)cccc1F)=Nc1cn[nH]c1-2
hHep Cl (mL/min/kg) (human hepatocyte): I (I (Intermediate C1)”: 6.3 mL/min/kg≤Hep Cl≤14.7 mL/min/kg) | Caco-2 A2B (10^−6 cm/s) (Caco-2 cells; A to B, HBSS pH 7.4, 2 hours): H (H (High permeability)”: A2B (B2A)>5) | Caco-2 B2A (10^−6 cm/s) (Caco-2 cells; B to A, HBSS pH 7.4, 2 hours): H (H (High permeability)”: A2B (B2A)>5) | Caco-2 ER (Caco-2 cells; Efflux Ratio=Papp (BA)/Papp (AB)): N (N (Non-substrate)”: ER<2.5) | IC50 [1]: 2 to 100 nM

The match of structure and compound is tentative.
